Experimental data as given in patent US8415300B2, “Sustained release of microcrystalline peptide suspensions” (Medical Research Council Technology, priority 2001, dated 2013).
Structures can show the parent of a compound that is named as a salt. Part of at least one peptide drawing is inferred or uncertain, most often the ends. Non-standard residues stand in square brackets, D forms with d. Residues, ends and D or L forms follow the SMILES beside them. dPhe(4-Cl) = N[C@H](Cc1ccc(Cl)cc1)C(=O)O; d2Nal = N[C@H](Cc1ccc2ccccc2c1)C(=O)O; d(hCit) = NC(=O)NCCCC[C@@H](N)C(=O)O; Lys(iPr) = CC(C)NCCCC[C@H](N)C(=O)O; d3Pal = N[C@H](Cc1cccnc1)C(=O)O

Legend:
testosterone = assay: Testosterone suppression after subcutaneous injection of the suspension in rats; type: in vivo; settings: 1 mg sub-cutaneously, suspension in 5% mannitol
[1] = Physical form (gel or flowing milky microcrystalline suspension) of the peptide salt mixed with aqueous medium or counter-ion acid; type: physicochemical; settings: for physical form after mixing: vortex one minute
Description: Such behavior is not elicited by other salts such as the acetate, which result in the expected, but unwanted, formation of gels with poor bioavailability in vivo.
200 μL of 5% mannitol were added to approximately 15 mg of the LHRH antagonist Teverelix trifluoroacetate. […] The suspension is made of microcrystals of about 10 μm length. Microcrystals may clump together to form urchin like structures. The suspension was injected in rats (1 mg) sub-cutaneously and provided the pharmacodynamic effect of testosterone suppression for more than 45 days (FIG. 1).
200 μL of water were added to approximately 15 mg of the LHRH antagonist Teverelix trifluoroacetate.
200 μL of water were added to approximately 15 mg of the LHRH antagonist Teverelix acetate.
In another study, 100 μL of TFA of various concentrations were added to 7.5 mg of the LHRH antagonist Teverelix acetate, with the TFA/Teverelix molar ratio ranging from 1 to 3.
200 μL of 150 mM TFA were added to amounts of the LHRH antagonist Teverelix acetate ranging from 5 to 30 mg (concentration ranging from 25 to 150 mg/mL).
The suspension was freeze-dried overnight.
The suspension was freeze-dried overnight. […] These suspensions were stable for at least 3 days at room temperature.
The suspension is made of microcrystals of about […] length. Microcrystals may assemble together to form urchin like structures. The suspension was freeze-dried overnight. […]

CC(=O)N[C@H](Cc1ccc2ccccc2c1)C(=O)N[C@H](Cc1ccc(Cl)cc1)C(=O)N[C@H](Cc1cccnc1)C(=O)N[C@@H](CO)C(=O)N[C@@H](Cc1ccc(O)cc1)C(=O)N[C@H](CCCCNC(N)=O)C(=O)N[C@@H](CC(C)C)C(=O)N[C@@H](CCCCNC(C)C)C(=O)N1CCC[C@H]1C(=O)N[C@H](C)C(N)=O [Teverelix trifluoroacetate, Ac-D-Nal-D-pClPhe-D-Pal-Ser-Tyr-D-Hci-Leu-Lys(iPr)-Pro-D-Ala-NH2] (Ac-[d2Nal][dPhe(4-Cl)][d3Pal]SY[d(hCit)]L[Lys(iPr)]P[dA]-NH2)
pharmacodynamic effect of testosterone suppression, duration (testosterone): more than 45 days | physical form after mixing ([1]; approximately 15 mg in 200 μL of 5% mannitol): flowing milky pearly suspension | physical form after mixing ([1]; approximately 15 mg in 200 μL of water): flowing milky pearly suspension | microcrystal length ([1]; suspension of approximately 15 mg in 200 μL of 5% mannitol): about 10 μm
